Results are given in words; binding and its absence hold for the method and conditions named. In cells and extracts the contact can be indirect. Some entries that bind do so weakly or less than the wild type.

Sequences of proteins named here, by UniProt entry; tags and fusion partners are left off. Residues count along the entry.
UniProt P25054, residues 2-2843: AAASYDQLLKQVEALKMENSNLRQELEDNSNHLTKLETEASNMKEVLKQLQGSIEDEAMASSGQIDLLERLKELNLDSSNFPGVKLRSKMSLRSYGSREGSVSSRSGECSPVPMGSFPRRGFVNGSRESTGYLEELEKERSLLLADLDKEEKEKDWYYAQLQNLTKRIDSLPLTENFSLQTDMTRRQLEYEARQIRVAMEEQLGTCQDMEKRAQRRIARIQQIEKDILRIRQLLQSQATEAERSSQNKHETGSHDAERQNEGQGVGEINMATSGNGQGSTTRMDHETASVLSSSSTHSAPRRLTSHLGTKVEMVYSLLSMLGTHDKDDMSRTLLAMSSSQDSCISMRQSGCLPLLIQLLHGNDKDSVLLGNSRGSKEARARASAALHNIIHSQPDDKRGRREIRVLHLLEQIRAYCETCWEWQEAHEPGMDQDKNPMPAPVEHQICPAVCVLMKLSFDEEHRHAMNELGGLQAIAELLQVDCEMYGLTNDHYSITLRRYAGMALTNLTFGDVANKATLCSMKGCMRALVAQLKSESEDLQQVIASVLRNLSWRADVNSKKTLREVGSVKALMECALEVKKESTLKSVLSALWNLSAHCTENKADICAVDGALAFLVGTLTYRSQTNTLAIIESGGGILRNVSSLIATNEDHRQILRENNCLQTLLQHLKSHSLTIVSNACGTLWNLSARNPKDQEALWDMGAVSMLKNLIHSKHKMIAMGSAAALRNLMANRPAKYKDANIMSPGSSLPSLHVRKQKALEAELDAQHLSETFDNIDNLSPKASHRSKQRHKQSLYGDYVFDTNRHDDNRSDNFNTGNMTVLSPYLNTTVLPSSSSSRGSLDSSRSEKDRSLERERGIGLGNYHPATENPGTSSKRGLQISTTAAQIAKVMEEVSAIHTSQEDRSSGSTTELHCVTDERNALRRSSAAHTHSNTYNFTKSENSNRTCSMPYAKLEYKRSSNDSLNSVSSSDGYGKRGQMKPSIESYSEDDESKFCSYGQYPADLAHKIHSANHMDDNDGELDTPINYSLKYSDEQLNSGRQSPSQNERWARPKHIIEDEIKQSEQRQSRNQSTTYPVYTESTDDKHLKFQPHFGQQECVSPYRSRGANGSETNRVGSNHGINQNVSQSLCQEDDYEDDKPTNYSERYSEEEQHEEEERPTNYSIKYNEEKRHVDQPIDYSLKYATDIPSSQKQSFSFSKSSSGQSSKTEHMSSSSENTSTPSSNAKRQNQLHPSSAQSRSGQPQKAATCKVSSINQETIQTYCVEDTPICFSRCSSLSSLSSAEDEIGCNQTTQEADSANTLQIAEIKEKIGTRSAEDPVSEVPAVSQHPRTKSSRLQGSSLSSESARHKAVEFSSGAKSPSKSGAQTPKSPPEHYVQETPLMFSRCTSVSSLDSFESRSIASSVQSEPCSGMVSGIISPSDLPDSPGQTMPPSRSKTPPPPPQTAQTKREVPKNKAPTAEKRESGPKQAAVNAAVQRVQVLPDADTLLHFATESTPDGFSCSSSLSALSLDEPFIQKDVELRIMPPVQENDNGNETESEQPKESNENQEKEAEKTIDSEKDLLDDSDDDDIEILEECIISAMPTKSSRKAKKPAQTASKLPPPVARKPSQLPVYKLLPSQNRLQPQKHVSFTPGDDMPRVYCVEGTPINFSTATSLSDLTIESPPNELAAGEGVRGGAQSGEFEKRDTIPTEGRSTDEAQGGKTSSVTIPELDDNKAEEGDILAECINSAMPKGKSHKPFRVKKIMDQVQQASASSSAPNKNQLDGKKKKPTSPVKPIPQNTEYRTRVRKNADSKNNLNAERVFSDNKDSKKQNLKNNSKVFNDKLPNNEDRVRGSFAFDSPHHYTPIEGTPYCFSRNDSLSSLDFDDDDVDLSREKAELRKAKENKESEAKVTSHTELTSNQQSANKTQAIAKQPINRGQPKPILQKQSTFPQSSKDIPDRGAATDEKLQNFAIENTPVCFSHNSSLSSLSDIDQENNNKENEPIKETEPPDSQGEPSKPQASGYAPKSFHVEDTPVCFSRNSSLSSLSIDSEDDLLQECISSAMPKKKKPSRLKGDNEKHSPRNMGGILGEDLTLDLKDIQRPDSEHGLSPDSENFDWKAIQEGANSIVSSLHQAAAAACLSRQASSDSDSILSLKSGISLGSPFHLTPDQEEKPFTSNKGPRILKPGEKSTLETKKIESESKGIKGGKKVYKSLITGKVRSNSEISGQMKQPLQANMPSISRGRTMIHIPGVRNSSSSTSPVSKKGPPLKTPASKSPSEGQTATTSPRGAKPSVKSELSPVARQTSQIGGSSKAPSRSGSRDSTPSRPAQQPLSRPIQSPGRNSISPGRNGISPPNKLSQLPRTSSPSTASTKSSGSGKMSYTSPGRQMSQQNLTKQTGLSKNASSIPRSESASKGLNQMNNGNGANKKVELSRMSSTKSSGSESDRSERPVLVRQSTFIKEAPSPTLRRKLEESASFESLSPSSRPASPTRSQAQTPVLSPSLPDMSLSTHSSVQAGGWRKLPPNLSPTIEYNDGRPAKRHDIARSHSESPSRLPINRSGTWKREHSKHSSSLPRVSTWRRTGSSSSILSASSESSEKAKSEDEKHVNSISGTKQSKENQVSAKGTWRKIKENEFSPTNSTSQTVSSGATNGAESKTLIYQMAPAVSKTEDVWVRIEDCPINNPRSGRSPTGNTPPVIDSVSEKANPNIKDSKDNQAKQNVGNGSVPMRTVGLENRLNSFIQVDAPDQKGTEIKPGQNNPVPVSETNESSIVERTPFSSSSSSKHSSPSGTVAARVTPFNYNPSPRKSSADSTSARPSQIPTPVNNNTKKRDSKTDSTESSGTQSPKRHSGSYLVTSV

The experiment concerns the target T1, APC-stimulated-exchange-factor (Asef)2 (human) (UniProt Q96N96).
T1 sequence (looked up): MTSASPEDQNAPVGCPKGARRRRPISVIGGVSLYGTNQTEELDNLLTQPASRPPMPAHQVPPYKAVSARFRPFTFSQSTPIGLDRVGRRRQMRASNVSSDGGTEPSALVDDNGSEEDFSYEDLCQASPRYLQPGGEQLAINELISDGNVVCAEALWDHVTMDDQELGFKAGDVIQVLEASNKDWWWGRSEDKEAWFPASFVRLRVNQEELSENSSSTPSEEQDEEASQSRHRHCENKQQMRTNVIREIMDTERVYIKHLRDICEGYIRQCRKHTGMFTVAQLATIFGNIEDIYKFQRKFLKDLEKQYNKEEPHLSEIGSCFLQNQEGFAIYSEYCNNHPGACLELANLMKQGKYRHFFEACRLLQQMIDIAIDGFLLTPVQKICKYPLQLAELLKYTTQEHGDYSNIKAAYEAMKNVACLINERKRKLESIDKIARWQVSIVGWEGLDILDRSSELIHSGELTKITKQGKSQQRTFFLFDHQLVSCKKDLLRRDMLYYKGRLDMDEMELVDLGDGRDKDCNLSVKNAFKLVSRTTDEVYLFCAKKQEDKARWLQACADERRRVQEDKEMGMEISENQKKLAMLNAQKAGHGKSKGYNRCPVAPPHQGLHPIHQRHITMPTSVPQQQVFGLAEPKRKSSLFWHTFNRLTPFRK
Kind of experiment: co-immunoprecipitation from HUVEC lysates (anti-APC IP, anti-Asef2 blot).

On to “Adenomatous Polyposis Coli (APC) (from UniProt P25054 2-2843)”, for which the binding entry was “binds”.

For the origin of these results see US20110223184A1.
